Test results from US8216786B2, “Genetic polymorphisms associated with cardiovascular diseases, methods of detection and uses thereof” (Celera Corporation, priority 2008, dated 2012).
The source gives many values for each of these; only a part stands here.

Tested on: individuals who have previously had an MI
Test: CARE trial: effect of pravastatin vs placebo on coronary events (endpt1, rmi) by SNP genotype subgroup
Format: in vivo, human
Conditions: endpt1
Method: In Tables 21-22, the column labeled “Endpoint” indicates whether the endpoint that was analyzed was the primary endpoint of the CARE study (a composite endpoint of fatal coronary event or nonfatal MI, and identified as “endpt1”) or a composite endpoint of confirmed fatal or nonfatal MI (identified as “rmi”). […] As used herein, the term “benefit” (with respect to a preventive or therapeutic drug treatment) is defined as achieving a reduced risk for a disease that the drug is intended to treat or prevent (e.g., CVD such as CHD, particularly MI, or hypertension) by administering the drug treatment, compared with the risk for the disease in the absence of receiving the drug treatment (or receiving a placebo in lieu of the drug treatment) for the same genotype. […] J. […] (1996) New England Journal of Medicine 335: 1001-1009. […] A well-documented MI was one of the enrollment criteria for entry into the CARE study. Patients were enrolled in the CARE trial from 80 participating study centers. […] For the study of CARE described in this Example and shown in Tables 21-22, two endpoints were investigated: the primary endpoint of CARE (a composite endpoint of fatal coronary event or nonfatal MI, and identified as “endpt1” in the Endpoint column of Tables 21-22) and a composite endpoint of confirmed fatal or nonfatal MI (identified as “rmi” in the Endpoint column of Tables 21-22). […] HR stands for Hazard Ratio, which is a concept similar to Odds Ratio (OR). The HR in event-free survival analysis is the effect of an explanatory variable on the hazard or risk of an event. […] In Table 21, p-interaction values were calculated. An interaction (or effect modification) is formed when a third variable modifies the relation between an exposure and outcome. […] Genotype and drug interaction is present when the effect of statins (incidence rate of disease in statin-treated group, as compared to placebo) differs in patients with different genotypes.

[1] = hCV1026586 rs673548 APOB, Strata AA
[2] = hCV1026586 rs673548 APOB, Strata GA + GG
[3] = hCV1239369 rs275982, strata CA + AA
[4] = hCV1243283 rs1716 ITGAE, Strata AA
[5] = hCV1243283 rs1716 ITGAE, Strata AG + GG
[6] = hCV1253630 rs2071307 ELN, Strata AG + AA
[7] = hCV1253630 rs2071307 ELN, Strata GG
[8] = hCV1323634 rs287475, Strata TC + TT
[9] = hCV1323669 rs287354, strata GA + GG
[10] = hCV1345898 rs2230804 CHUK, Strata CC
[11] = hCV1345898 rs2230804 CHUK, Strata CT + TT
[12] = hCV1361979 rs25683 ACAT2, Strata AG + AA
[13] = hCV1361979 rs25683 ACAT2, Strata GG
[14] = hCV1375141 rs1881420 ALK, Strata CC
[15] = hCV1375141 rs1881420 ALK, Strata CT
[16] = hCV1375141 rs1881420 ALK, Strata TT
[17] = hCV1488444 rs10164405, strata TG + GG
[18] = hCV1488444 rs10164405, strata TT
[19] = hCV1489995 rs4013819 LOC392281, strata GC + CC
[20] = hCV1489995 rs4013819 LOC392281, strata GG
[21] = hCV1552894 rs434473 ALOX12, Strata GA + AA
[22] = hCV1552894 rs434473 ALOX12, Strata GG
[23] = hCV1552900 rs1126667 ALOX12, Strata AA
[24] = hCV1552900 rs1126667 ALOX12, Strata AG + GG
[25] = hCV1600754 rs17288671 CXCL9, Strata CC
[26] = hCV1600754 rs17288671 CXCL9, Strata TC + TT
[27] = hCV1603697 rs2229475 HSPG2, Strata CC
[28] = hCV1603697 rs2229475 HSPG2, Strata TC + TT
[29] = hCV1647371 rs3025000 VEGFA, Strata CC
[30] = hCV1647371 rs3025000 VEGFA, Strata TC + TT
[31] = hCV1729928 rs10509384 KCNMA1, strata AG + AA
[32] = hCV1729928 rs10509384 KCNMA1, strata GG
[33] = hCV1741111 rs1764391 C1orf212, Strata TC + CC
[34] = hCV1741111 rs1764391 C1orf212, Strata TT
[35] = hCV1770462 rs12731981 MPL, Strata AG + AA
[36] = hCV1770462 rs12731981 MPL, Strata GG
[37] = hCV1802755 rs7764347 RFXDC1, strata CC
[38] = hCV1802755 rs7764347 RFXDC1, strata CT + TT
[39] = hCV1843175 rs3745535 KLK10, Strata AC + AA
[40] = hCV1843175 rs3745535 KLK10, Strata CC
[41] = hCV1948599 rs504527 CSMD2, strata AA
[42] = hCV1948599 rs504527 CSMD2, strata CA + CC
[43] = hCV2143205 rs9666607 CD44, Strata AA
[44] = hCV2143205 rs9666607 CD44, Strata AG + GG
[45] = hCV2230606 rs13268 FBLN1, Strata AA
[46] = hCV2230606 rs13268 FBLN1, Strata GA + GG

For `CC[C@H](C)C(=O)O[C@H]1C[C@H](O)C=C2C=C[C@H](C)[C@H](CC[C@@H](O)C[C@@H](O)CC(=O)O)[C@H]21` [pravastatin], the “EVENTS (Pravastatin arm)” value [1] was 9, the “NONEVENT (Pravastatin arm)” value [1] was 59 and the “EVENTS (Pravastatin arm)” value [2] was 127. For the same compound, the “NONEVENT (Pravastatin arm)” value [2] was 1203, the “EVENTS (Pravastatin arm)” value [3] was 88 and the “NONEVENT (Pravastatin arm)” value [3] was 713. The “EVENTS (Pravastatin arm)” value (hCV1239369 rs275982, strata CC) was 48, the “NONEVENT (Pravastatin arm)” value (hCV1239369 rs275982, strata CC) was 552 and the “EVENTS (Pravastatin arm)” value [4] was 10. For the same compound, the “NONEVENT (Pravastatin arm)” value [4] was 151, the “EVENTS (Pravastatin arm)” value [5] was 123 and the “NONEVENT (Pravastatin arm)” value [5] was 1138. The “EVENTS (Pravastatin arm)” value [6] was 92, the “NONEVENT (Pravastatin arm)” value [6] was 839 and the “EVENTS (Pravastatin arm)” value [7] was 40. For the same compound, the “NONEVENT (Pravastatin arm)” value [7] was 450, the “EVENTS (Pravastatin arm)” value (hCV1323634 rs287475, Strata CC) was 30 and the “NONEVENT (Pravastatin arm)” value (hCV1323634 rs287475, Strata CC) was 229. The “EVENTS (Pravastatin arm)” value [8] was 106, the “NONEVENT (Pravastatin arm)” value [8] was 1034 and the “EVENTS (Pravastatin arm)” value (hCV1323669 rs287354, strata AA) was 32. For the same compound, the “NONEVENT (Pravastatin arm)” value (hCV1323669 rs287354, strata AA) was 244, the “EVENTS (Pravastatin arm)” value [9] was 104 and the “NONEVENT (Pravastatin arm)” value [9] was 1023. The “EVENTS (Pravastatin arm)” value [10] was 21, the “NONEVENT (Pravastatin arm)” value [10] was 322 and the “EVENTS (Pravastatin arm)” value [11] was 111. The “NONEVENT (Pravastatin arm)” value [11] was 964, the “EVENTS (Pravastatin arm)” value [12] was 97 and the “NONEVENT (Pravastatin arm)” value [12] was 851. The “EVENTS (Pravastatin arm)” value [13] was 36, the “NONEVENT (Pravastatin arm)” value [13] was 434 and the “EVENTS (Pravastatin arm)” value [14] was 10. For the same compound, the “NONEVENT (Pravastatin arm)” value [14] was 69, the “EVENTS (Pravastatin arm)” value [15] was 33 and the “NONEVENT (Pravastatin arm)” value [15] was 421. For the same compound, the “EVENTS (Pravastatin arm)” value [16] was 90, the “NONEVENT (Pravastatin arm)” value [16] was 799 and the “EVENTS (Pravastatin arm)” value [17] was 129. The “NONEVENT (Pravastatin arm)” value [17] was 1159, the “EVENTS (Pravastatin arm)” value [18] was 7 and the “NONEVENT (Pravastatin arm)” value [18] was 103. The “EVENTS (Pravastatin arm)” value [19] was 120, the “NONEVENT (Pravastatin arm)” value [19] was 1076 and the “EVENTS (Pravastatin arm)” value [20] was 16. The “NONEVENT (Pravastatin arm)” value [20] was 185, the “EVENTS (Pravastatin arm)” value [21] was 116 and the “NONEVENT (Pravastatin arm)” value [21] was 1073. The “EVENTS (Pravastatin arm)” value [22] was 16, the “NONEVENT (Pravastatin arm)” value [22] was 212 and the “EVENTS (Pravastatin arm)” value [23] was 16. The “NONEVENT (Pravastatin arm)” value [23] was 212, the “EVENTS (Pravastatin arm)” value [24] was 117 and the “NONEVENT (Pravastatin arm)” value [24] was 1076. For the same compound, the “EVENTS (Pravastatin arm)” value [25] was 34, the “NONEVENT (Pravastatin arm)” value [25] was 396 and the “EVENTS (Pravastatin arm)” value [26] was 99. For the same compound, the “NONEVENT (Pravastatin arm)” value [26] was 892, the “EVENTS (Pravastatin arm)” value [27] was 122 and the “NONEVENT (Pravastatin arm)” value [27] was 1141. The “EVENTS (Pravastatin arm)” value [28] was 11, the “NONEVENT (Pravastatin arm)” value [28] was 148 and the “EVENTS (Pravastatin arm)” value [29] was 57. For the same compound, the “NONEVENT (Pravastatin arm)” value [29] was 600, the “EVENTS (Pravastatin arm)” value [30] was 75 and the “NONEVENT (Pravastatin arm)” value [30] was 662. For the same compound, the “EVENTS (Pravastatin arm)” value [31] was 117, the “NONEVENT (Pravastatin arm)” value [31] was 1119 and the “EVENTS (Pravastatin arm)” value [32] was 18. The “NONEVENT (Pravastatin arm)” value [32] was 142, the “EVENTS (Pravastatin arm)” value [33] was 121 and the “NONEVENT (Pravastatin arm)” value [33] was 1174. For the same compound, the “EVENTS (Pravastatin arm)” value [34] was 12, the “NONEVENT (Pravastatin arm)” value [34] was 114 and the “EVENTS (Pravastatin arm)” value [35] was 18. The “NONEVENT (Pravastatin arm)” value [35] was 82, the “EVENTS (Pravastatin arm)” value [36] was 114 and the “NONEVENT (Pravastatin arm)” value [36] was 1204. For the same compound, the “EVENTS (Pravastatin arm)” value [37] was 2, the “NONEVENT (Pravastatin arm)” value [37] was 47 and the “EVENTS (Pravastatin arm)” value [38] was 134. The “NONEVENT (Pravastatin arm)” value [38] was 1216, the “EVENTS (Pravastatin arm)” value [39] was 75 and the “NONEVENT (Pravastatin arm)” value [39] was 754. The “EVENTS (Pravastatin arm)” value [40] was 57, the “NONEVENT (Pravastatin arm)” value [40] was 528 and the “EVENTS (Pravastatin arm)” value [41] was 44. The “NONEVENT (Pravastatin arm)” value [41] was 275, the “EVENTS (Pravastatin arm)” value [42] was 92 and the “NONEVENT (Pravastatin arm)” value [42] was 989. The “EVENTS (Pravastatin arm)” value [43] was 16, the “NONEVENT (Pravastatin arm)” value [43] was 125 and the “EVENTS (Pravastatin arm)” value [44] was 117. For the same compound, the “NONEVENT (Pravastatin arm)” value [44] was 1167, the “EVENTS (Pravastatin arm)” value (hCV2221541 rs739161, strata CC) was 7 and the “NONEVENT (Pravastatin arm)” value (hCV2221541 rs739161, strata CC) was 121. For the same compound, the “EVENTS (Pravastatin arm)” value (hCV2221541 rs739161, strata TC) was 55, the “NONEVENT (Pravastatin arm)” value (hCV2221541 rs739161, strata TC) was 492 and the “EVENTS (Pravastatin arm)” value (hCV2221541 rs739161, strata TT) was 74. For the same compound, the “NONEVENT (Pravastatin arm)” value (hCV2221541 rs739161, strata TT) was 649, the “EVENTS (Pravastatin arm)” value [45] was 124 and the “NONEVENT (Pravastatin arm)” value [45] was 1224. The “EVENTS (Pravastatin arm)” value [46] was 9, the “NONEVENT (Pravastatin arm)” value [46] was 62 and the “EVENTS (Pravastatin arm)” value (hCV2276802 rs381418 GBA, Strata AA) was 33.
